# Data source: PubChem BioAssay AID1259405 (NCATS, 2018)
# Assay: 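Mouse-designed siRNAs used to find CHO productivity engineering targets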 (primary screen)
# System: Chinese hamster CHO-K1 ovary cells with stable secreted eGFP expression
# Reagent: single siRNA against mouse genes, 0.8 pmol siRNA per well (2 µl of 400 nM stock)
# Time to read-out: 3 days
# Measured: 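Per-well intracellular GFP measured by laser scanning cytometry, plus viability from ATP luminescence, each relative to plate median of non-targeting control wells, in %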
# Reading the numbers: GFP, % of control: higher = more GFP per well, higher productivity; viability (ATP), % of control: higher = more viable cells (more ATP)
# Active means: 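a knock-down is called active if GFP reaches 120% or more of non-targeting control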
# The deposit covers about 50,000 reagents; shown is a part drawn at random. In the full data, about 4,000 (8%) are marked active. 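Mouse siRNA library applied to hamster cells; one well for each siRNA.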 A number with no mark means an inactive call. Reagents against one gene are numbered here.
target,reagent,"GFP, % of control","viability (ATP), % of control"
Spdye4b (GeneID 330228),1,60.1,62.7
Spdye4b (GeneID 330228),2,110,90.6
Spdye4b (GeneID 330228),3,98.8,112
Alox12b (GeneID 11686),1,115,120
Alox12b (GeneID 11686),2,64,69.9
Or51a42 (GeneID 259081),1,93.5,76.1
Or51a42 (GeneID 259081),2,123 (active),71.5
Or51a42 (GeneID 259081),3,23.8,40
Tslp (GeneID 53603),1,65.5,50.6
Tslp (GeneID 53603),2,70.2,82.3
Tslp (GeneID 53603),3,139 (active),128
C1s1 (GeneID 50908),1,80.8,87.7
C1s1 (GeneID 50908),2,72,77.8
Prrc2a (GeneID 53761),1,74.9,61.3
Prrc2a (GeneID 53761),2,90.4,88.6
Prrc2a (GeneID 53761),3,67.5,73.7
Slc30a4 (GeneID 22785),1,55.3,63.1
Slc30a4 (GeneID 22785),2,60.6,62.3
Slc30a4 (GeneID 22785),3,20.8,94.2
Col10a1 (GeneID 12813),1,81.7,76.3
Col10a1 (GeneID 12813),2,113,77.6
Or2f1b (GeneID 258988),1,92.5,68.1
Or2f1b (GeneID 258988),2,86.8,75.6
Or2f1b (GeneID 258988),3,82,79.1
Abraxas2 (GeneID 109359),1,64.5,89.1
Abraxas2 (GeneID 109359),2,58,62.6
Abraxas2 (GeneID 109359),3,80,111
Ambn (GeneID 11698),1,77.4,72.1
Ambn (GeneID 11698),2,109,71.7
Ambn (GeneID 11698),3,91.4,73.3
Or5b104 (GeneID 258568),1,72.3,48.7
Or5b104 (GeneID 258568),2,100,86.2
Or5b104 (GeneID 258568),3,71.7,59.9
Rab33b (GeneID 19338),1,45.6,48.7
Rab33b (GeneID 19338),2,82.4,66.2
Rab33b (GeneID 19338),3,81.6,76.2
Or8g24 (GeneID 258430),1,35.7,32.3
Or8g24 (GeneID 258430),2,83.1,72.3
Or8g24 (GeneID 258430),3,101,93.6
Adgre1 (GeneID 13733),1,115,87.5
Adgre1 (GeneID 13733),2,55.5,71.5
Adgre1 (GeneID 13733),3,80.4,78.5
Ndufa7 (GeneID 66416),1,41.4,60.5
Ndufa7 (GeneID 66416),2,49,38.3
Negr1 (GeneID 320840),1,54.8,67.2
Negr1 (GeneID 320840),2,98.8,90.1
Cth (GeneID 107869),1,61.4,49.6
Cth (GeneID 107869),2,59.7,60.2
Cth (GeneID 107869),3,38.9,63.3
Zfp956 (GeneID 101197),1,90.1,83.4
Zfp956 (GeneID 101197),2,85,61.9
Zfp956 (GeneID 101197),3,133 (active),91.5
Trp53inp2 (GeneID 68728),1,69.8,67.6
Trp53inp2 (GeneID 68728),2,85,110
Trp53inp2 (GeneID 68728),3,120,124
Gm5409 (GeneID 386551),1,97.6,61.8
Gm5409 (GeneID 386551),2,53.4,72
Gm5409 (GeneID 386551),3,79.3,87.7
Trim35 (GeneID 66854),1,45.2,30.2
Trim35 (GeneID 66854),2,105,119
Trim35 (GeneID 66854),3,103,108
Cdk12 (GeneID 69131),1,93.2,73.1
Myoz1 (GeneID 59011),1,67.3,37.5
Myoz1 (GeneID 59011),2,111,50.3
Myoz1 (GeneID 59011),3,72.2,54.4
Snrnp48 (GeneID 67797),1,61.1,93
Snrnp48 (GeneID 67797),2,109,91.1
Snrnp48 (GeneID 67797),3,188 (active),162
Crisp2 (GeneID 22024),1,73.5,81
Crisp2 (GeneID 22024),2,35,60.2
Crisp2 (GeneID 22024),3,120 (active),117
Ufsp2 (GeneID 192169),1,79.2,63.6
Ufsp2 (GeneID 192169),2,95.1,67.5
Ufsp2 (GeneID 192169),3,103,73.9
Myo5b (GeneID 17919),1,91.6,82.6
Myo5b (GeneID 17919),2,95.5,101
Pcyox1 (GeneID 66881),1,70.1,37.6
Pcyox1 (GeneID 66881),2,85.8,78.6
Pcyox1 (GeneID 66881),3,50.1,88.4
Vmn1r16 (GeneID 171202),1,75.9,61
Vmn1r16 (GeneID 171202),2,42.9,42.4
Vmn1r16 (GeneID 171202),3,59.7,96.8
Fbxo17 (GeneID 50760),1,71.7,79.7
Fbxo17 (GeneID 50760),2,51.7,83.6
Fbxo17 (GeneID 50760),3,72.9,75.3
Ankrd12 (GeneID 106585),1,78.1,59.8
Ankrd12 (GeneID 106585),2,73.8,57.8
Ankrd12 (GeneID 106585),3,97.6,89.7
Mapk8ip2 (GeneID 60597),1,59.6,77.3
Mapk8ip2 (GeneID 60597),2,66.7,82.9
Mgat4e (GeneID 71001),1,172 (active),100
Mgat4e (GeneID 71001),2,104,76.3
Mgat4e (GeneID 71001),3,58.8,71.3
Gbp2 (GeneID 14469),1,100,88
Gbp2 (GeneID 14469),2,42.5,52.6
Gbp2 (GeneID 14469),3,66.5,69.8
Zfp334 (GeneID 228876),1,63.8,73.1
Zfp334 (GeneID 228876),2,81.8,76.2
Zfp334 (GeneID 228876),3,75.4,81.6
Enam (GeneID 13801),1,60.6,59.6
Enam (GeneID 13801),2,66.7,80.2
Enam (GeneID 13801),3,51.4,61.1
Bloc1s1 (GeneID 14533),1,87.4,70.6
Bloc1s1 (GeneID 14533),2,137 (active),44.9
Bloc1s1 (GeneID 14533),3,83.8,98.6
Ndst4 (GeneID 64580),1,103,84.6
Ndst4 (GeneID 64580),2,128 (active),183
Ndst4 (GeneID 64580),3,97.5,105

Hits, of those listed so far:
target,reagent,"GFP, % of control","viability (ATP), % of control"
Or51a42 (GeneID 259081),2,123 (active),71.5
Tslp (GeneID 53603),3,139 (active),128
Zfp956 (GeneID 101197),3,133 (active),91.5
Snrnp48 (GeneID 67797),3,188 (active),162
Crisp2 (GeneID 22024),3,120 (active),117
Mgat4e (GeneID 71001),1,172 (active),100
Bloc1s1 (GeneID 14533),2,137 (active),44.9
Ndst4 (GeneID 64580),2,128 (active),183
